Measurements from the supplement of paper PMC7666118.
Some of the results follow.

The chains behind the UniProt entries cited, without tags or fusion partners. Where a name states a change or a piece, a line headed by the entry shows the natural chain unless it says otherwise.
UniProt Q00534, whole entry: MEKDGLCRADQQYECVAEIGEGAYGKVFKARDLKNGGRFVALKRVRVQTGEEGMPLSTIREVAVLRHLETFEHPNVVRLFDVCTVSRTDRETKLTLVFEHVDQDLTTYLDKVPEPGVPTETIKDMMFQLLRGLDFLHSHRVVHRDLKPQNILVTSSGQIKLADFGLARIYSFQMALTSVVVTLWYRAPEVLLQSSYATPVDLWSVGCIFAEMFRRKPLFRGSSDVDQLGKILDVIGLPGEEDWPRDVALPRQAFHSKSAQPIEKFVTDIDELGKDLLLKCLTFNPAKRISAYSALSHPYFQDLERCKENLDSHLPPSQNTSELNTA
UniProt P35790, whole entry, looked up: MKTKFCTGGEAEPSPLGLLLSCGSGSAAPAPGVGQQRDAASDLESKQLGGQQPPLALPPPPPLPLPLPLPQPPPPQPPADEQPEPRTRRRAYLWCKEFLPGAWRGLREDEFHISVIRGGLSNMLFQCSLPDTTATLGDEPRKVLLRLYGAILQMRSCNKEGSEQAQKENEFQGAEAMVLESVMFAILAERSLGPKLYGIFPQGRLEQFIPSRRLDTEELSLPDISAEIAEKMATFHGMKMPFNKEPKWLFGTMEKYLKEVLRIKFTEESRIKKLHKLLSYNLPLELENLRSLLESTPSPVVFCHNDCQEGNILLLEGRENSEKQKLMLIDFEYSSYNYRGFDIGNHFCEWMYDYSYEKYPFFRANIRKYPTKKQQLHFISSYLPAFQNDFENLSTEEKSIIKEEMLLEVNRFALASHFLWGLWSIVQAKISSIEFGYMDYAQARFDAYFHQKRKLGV
UniProt O95639, whole entry: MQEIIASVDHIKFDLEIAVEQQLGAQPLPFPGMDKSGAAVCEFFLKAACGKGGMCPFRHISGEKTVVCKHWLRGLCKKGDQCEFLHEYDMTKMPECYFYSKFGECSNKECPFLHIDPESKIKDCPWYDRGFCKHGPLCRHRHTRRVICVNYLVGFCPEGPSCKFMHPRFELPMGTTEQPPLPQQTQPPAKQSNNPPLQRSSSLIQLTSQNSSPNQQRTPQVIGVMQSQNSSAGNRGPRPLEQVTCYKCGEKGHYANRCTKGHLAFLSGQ
UniProt Q9UHD1: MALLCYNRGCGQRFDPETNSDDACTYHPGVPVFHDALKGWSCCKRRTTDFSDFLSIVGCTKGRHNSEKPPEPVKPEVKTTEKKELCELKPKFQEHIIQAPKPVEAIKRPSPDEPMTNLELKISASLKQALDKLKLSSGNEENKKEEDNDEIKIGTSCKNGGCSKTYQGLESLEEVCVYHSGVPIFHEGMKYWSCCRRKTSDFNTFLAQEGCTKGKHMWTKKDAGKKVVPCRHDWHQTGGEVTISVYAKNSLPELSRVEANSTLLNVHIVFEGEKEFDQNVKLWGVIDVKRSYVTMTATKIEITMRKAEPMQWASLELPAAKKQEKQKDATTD
UniProt Q6P4Q7: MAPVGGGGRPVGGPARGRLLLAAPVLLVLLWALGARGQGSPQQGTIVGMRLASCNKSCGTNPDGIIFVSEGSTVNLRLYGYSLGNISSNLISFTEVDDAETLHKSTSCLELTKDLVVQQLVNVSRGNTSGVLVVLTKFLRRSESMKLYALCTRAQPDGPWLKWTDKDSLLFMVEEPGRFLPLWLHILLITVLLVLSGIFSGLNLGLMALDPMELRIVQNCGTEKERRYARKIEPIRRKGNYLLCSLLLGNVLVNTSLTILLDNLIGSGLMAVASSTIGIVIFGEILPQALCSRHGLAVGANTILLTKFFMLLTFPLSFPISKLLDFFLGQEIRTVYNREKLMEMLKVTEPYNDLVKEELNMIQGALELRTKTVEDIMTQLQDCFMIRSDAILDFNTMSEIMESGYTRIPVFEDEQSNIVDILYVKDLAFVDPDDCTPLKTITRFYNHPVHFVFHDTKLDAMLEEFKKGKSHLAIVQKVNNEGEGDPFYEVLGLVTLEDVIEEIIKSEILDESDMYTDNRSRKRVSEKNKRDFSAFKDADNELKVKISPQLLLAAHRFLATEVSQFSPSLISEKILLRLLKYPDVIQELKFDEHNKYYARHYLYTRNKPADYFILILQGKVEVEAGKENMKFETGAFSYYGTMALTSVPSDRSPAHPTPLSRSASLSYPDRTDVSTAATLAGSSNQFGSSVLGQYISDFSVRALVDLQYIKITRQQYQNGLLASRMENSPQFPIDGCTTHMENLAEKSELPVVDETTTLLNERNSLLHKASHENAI
UniProt Q99828: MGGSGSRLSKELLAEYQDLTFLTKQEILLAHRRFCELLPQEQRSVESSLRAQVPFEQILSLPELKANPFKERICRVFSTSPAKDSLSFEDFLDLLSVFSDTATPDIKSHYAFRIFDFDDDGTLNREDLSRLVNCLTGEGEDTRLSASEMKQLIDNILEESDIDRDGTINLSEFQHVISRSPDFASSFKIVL
UniProt Q9H9E3: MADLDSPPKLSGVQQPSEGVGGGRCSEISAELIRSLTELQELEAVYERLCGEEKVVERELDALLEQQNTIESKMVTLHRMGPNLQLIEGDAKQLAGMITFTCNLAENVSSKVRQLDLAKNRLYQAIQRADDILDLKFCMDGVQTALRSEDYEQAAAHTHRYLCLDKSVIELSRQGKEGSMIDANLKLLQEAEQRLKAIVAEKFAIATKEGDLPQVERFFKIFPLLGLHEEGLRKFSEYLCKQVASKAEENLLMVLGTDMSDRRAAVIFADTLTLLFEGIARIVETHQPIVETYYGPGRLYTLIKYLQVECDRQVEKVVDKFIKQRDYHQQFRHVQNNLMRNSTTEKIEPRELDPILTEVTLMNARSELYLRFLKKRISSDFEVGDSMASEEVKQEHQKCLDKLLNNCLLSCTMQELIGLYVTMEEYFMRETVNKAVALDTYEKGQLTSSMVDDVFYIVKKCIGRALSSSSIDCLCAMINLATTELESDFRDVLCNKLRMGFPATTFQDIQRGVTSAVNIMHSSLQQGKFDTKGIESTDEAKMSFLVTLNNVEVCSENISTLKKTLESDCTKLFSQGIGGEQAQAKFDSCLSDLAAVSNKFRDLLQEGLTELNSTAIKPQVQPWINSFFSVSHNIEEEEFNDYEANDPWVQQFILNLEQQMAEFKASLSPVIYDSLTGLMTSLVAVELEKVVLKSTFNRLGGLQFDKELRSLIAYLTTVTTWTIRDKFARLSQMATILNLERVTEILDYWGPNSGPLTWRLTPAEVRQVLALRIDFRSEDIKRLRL
UniProt P30622: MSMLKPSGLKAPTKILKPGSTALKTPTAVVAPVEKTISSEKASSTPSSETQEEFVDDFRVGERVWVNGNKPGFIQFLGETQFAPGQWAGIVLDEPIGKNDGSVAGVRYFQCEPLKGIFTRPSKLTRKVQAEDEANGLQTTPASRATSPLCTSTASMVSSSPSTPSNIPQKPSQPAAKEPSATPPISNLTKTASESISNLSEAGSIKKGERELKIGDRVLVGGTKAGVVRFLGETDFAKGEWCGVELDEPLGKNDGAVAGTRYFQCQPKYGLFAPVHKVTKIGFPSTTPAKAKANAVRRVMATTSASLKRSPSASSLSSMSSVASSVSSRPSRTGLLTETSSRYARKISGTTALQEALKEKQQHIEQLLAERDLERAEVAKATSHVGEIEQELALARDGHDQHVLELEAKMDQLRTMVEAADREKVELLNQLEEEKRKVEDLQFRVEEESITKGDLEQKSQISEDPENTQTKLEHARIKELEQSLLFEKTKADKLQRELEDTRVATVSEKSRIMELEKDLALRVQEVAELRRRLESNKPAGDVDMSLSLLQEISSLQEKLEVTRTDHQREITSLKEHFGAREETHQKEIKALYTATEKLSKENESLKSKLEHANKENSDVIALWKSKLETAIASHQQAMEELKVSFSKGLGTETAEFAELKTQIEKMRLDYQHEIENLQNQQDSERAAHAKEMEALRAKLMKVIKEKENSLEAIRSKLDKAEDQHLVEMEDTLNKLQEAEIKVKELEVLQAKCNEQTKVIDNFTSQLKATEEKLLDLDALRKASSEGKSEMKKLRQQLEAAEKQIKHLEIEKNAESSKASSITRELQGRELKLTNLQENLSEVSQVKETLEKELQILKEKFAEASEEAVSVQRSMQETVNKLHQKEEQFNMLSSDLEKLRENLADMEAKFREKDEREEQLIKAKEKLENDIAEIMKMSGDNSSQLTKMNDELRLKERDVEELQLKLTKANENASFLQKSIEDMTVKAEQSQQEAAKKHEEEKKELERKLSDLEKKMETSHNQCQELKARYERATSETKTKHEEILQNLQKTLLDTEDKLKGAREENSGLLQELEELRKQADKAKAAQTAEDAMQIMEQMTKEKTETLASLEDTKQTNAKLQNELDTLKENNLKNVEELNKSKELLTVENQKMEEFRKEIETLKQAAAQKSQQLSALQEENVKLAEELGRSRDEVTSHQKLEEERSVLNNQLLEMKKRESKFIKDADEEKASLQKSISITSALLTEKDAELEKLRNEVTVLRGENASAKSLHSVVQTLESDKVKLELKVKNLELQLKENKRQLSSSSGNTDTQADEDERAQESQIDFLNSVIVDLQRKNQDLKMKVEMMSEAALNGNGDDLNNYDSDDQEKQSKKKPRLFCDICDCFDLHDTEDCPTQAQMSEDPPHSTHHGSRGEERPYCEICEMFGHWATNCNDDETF
UniProt Q9UFW8: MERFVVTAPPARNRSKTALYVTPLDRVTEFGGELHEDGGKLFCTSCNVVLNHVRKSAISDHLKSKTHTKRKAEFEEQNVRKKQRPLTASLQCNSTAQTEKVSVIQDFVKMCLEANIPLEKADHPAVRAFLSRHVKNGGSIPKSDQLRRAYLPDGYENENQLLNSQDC
UniProt Q96MX0: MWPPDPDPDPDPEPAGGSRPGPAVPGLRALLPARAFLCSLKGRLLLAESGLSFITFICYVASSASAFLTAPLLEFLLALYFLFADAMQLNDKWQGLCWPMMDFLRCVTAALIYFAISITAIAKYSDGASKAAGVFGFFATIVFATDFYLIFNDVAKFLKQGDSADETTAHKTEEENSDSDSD
UniProt P53675: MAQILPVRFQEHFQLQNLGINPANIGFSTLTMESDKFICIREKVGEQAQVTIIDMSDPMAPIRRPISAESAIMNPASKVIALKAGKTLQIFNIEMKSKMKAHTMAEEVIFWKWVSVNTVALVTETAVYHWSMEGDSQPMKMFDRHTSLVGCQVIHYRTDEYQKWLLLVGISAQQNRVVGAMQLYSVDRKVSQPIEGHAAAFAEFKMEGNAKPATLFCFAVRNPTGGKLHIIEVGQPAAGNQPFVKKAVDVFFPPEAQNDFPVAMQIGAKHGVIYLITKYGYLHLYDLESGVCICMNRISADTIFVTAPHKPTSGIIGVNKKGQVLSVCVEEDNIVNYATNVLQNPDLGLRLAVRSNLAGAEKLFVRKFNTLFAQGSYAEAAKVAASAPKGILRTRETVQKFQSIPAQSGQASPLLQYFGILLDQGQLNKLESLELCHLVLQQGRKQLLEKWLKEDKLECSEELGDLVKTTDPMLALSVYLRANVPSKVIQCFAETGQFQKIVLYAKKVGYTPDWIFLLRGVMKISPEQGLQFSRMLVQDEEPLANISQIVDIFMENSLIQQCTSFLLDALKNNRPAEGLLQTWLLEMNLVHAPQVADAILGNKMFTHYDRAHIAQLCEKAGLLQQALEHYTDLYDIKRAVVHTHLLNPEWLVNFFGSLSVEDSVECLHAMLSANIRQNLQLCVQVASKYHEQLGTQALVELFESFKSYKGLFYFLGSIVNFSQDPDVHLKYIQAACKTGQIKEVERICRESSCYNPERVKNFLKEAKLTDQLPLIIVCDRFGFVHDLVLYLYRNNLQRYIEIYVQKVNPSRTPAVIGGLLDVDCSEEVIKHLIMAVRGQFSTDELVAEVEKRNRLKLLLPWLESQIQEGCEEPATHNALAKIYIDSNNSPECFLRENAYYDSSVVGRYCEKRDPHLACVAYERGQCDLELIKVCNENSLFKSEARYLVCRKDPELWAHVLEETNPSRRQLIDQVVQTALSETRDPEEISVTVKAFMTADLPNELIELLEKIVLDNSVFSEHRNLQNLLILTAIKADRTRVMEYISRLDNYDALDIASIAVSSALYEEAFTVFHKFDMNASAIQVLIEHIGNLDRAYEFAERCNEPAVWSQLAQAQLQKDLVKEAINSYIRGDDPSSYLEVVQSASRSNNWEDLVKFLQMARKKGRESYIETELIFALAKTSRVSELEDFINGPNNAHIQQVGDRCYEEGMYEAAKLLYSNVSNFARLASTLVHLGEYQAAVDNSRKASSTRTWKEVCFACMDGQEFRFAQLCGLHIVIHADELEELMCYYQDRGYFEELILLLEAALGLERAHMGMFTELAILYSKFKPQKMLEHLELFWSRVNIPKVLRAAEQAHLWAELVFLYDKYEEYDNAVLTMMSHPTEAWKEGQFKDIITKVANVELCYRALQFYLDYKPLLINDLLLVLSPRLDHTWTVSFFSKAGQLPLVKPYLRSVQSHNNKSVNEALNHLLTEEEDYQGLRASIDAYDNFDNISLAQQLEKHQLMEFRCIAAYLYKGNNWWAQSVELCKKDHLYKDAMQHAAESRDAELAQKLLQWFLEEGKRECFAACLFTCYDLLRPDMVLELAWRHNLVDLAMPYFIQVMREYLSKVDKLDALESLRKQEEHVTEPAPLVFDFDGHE

Each target was assayed with COc1ccc(Cn2ccc3cc(C)c(C(=O)NO)cc32)cc1 (assay: dose-dependent thermal stabilisation call (2D-TPP, DLPTP, 10% FDR) (binary (1 = stabilised)); higher = stabilised by the compound). Conditions: system: HL-60 intact cells; concentration range 0.04-10 µM.
Method: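 2D thermal proteome profiling in intact HL-60 cells treated with BRD-3811 (0, 0.04, 0.29, 2, 10 uM) for 90 min at 37 C, then heated 3 min at one of 12 temperatures (42-63.9 C). Soluble protein was quantified by TMT10 MS. The value is the DLPTP call of the paper: dose-dependent thermal stabilisation over all temperatures at 10% FDR (F-test of a dose-response against a flat model); one experiment, one call per tested protein.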
For CLCN5 (UniProt P51795), the “dose-dependent thermal stabilisation call” value was inactive: 0.
In the case of CDK6 (UniProt Q00534), the “dose-dependent thermal stabilisation call” value is reported as inactive: 0.
In the case of CHKA (UniProt P35790), the “dose-dependent thermal stabilisation call” value is reported as inactive: 0.
In the case of CPSF4 (UniProt O95639), the “dose-dependent thermal stabilisation call” value is reported as inactive: 0.
CES2 (UniProt O00748) was tested, and the “dose-dependent thermal stabilisation call” value was inactive: 0.
For CLPTM1L (UniProt Q96KA5), the “dose-dependent thermal stabilisation call” value was inactive: 0.
With COQ5 (UniProt Q5HYK3) the “dose-dependent thermal stabilisation call” value was inactive: 0.
In the case of CDKN2AIPNL (UniProt Q96HQ2), the “dose-dependent thermal stabilisation call” value is reported as inactive: 0.
With COG5 (UniProt Q9UP83) the “dose-dependent thermal stabilisation call” value was inactive: 0.
In the case of CNO (UniProt Q9NUP1), the “dose-dependent thermal stabilisation call” value is reported as inactive: 0.
For CEP350 (UniProt Q5VT06), the “dose-dependent thermal stabilisation call” value was inactive: 0.
For CHORDC1 (UniProt Q9UHD1), the “dose-dependent thermal stabilisation call” value was inactive: 0.
In the case of CNNM4 (UniProt Q6P4Q7), the “dose-dependent thermal stabilisation call” value is reported as inactive: 0.
For CIB1 (UniProt Q99828), the “dose-dependent thermal stabilisation call” value was inactive: 0.
COX2 was tested, and the “dose-dependent thermal stabilisation call” value was inactive: 0.
For COG4 (UniProt Q9H9E3), the “dose-dependent thermal stabilisation call” value was inactive: 0.
In the case of COASY (UniProt Q13057), the “dose-dependent thermal stabilisation call” value is reported as inactive: 0.
In the case of CLIP1 (UniProt P30622), the “dose-dependent thermal stabilisation call” value is reported as inactive: 0.
CPD (UniProt O75976) was tested, and the “dose-dependent thermal stabilisation call” value was inactive: 0.
CLSTN1 (UniProt O94985) was tested, and the “dose-dependent thermal stabilisation call” value was inactive: 0.
CENPF (UniProt P49454) was tested, and the “dose-dependent thermal stabilisation call” value was inactive: 0.
In the case of CIRBP (UniProt Q14011), the “dose-dependent thermal stabilisation call” value is reported as inactive: 0.
In the case of CEPT1 (UniProt Q9Y6K0), the “dose-dependent thermal stabilisation call” value is reported as inactive: 0.
In the case of CENPE (UniProt Q02224), the “dose-dependent thermal stabilisation call” value is reported as inactive: 0.
CRTC1 (UniProt Q6UUV9) was tested, and the “dose-dependent thermal stabilisation call” value was inactive: 0.
With CNOT4 (UniProt O95628) the “dose-dependent thermal stabilisation call” value was inactive: 0.
With CEBPG (UniProt P53567) the “dose-dependent thermal stabilisation call” value was inactive: 0.
In the case of CHMP2B (UniProt Q9UQN3), the “dose-dependent thermal stabilisation call” value is reported as inactive: 0.
For CHMP6 (UniProt Q96FZ7), the “dose-dependent thermal stabilisation call” value was inactive: 0.
CDK2 (UniProt P24941) was tested, and the “dose-dependent thermal stabilisation call” value was inactive: 0.
In the case of CHD9 (UniProt Q3L8U1), the “dose-dependent thermal stabilisation call” value is reported as inactive: 0.
With COPS7B (UniProt Q9H9Q2) the “dose-dependent thermal stabilisation call” value was inactive: 0.
CLP1 (UniProt Q92989) was tested, and the “dose-dependent thermal stabilisation call” value was inactive: 0.
CEP110 was tested, and the “dose-dependent thermal stabilisation call” value was inactive: 0.
With CGGBP1 (UniProt Q9UFW8) the “dose-dependent thermal stabilisation call” value was inactive: 0.
In the case of CLSPN (UniProt Q9HAW4), the “dose-dependent thermal stabilisation call” value is reported as inactive: 0.
With CMTM3 (UniProt Q96MX0) the “dose-dependent thermal stabilisation call” value was inactive: 0.
For CDK5 (UniProt Q00535), the “dose-dependent thermal stabilisation call” value was inactive: 0.
With CHST10 (UniProt O43529) the “dose-dependent thermal stabilisation call” value was inactive: 0.
In the case of CLTCL1 (UniProt P53675), the “dose-dependent thermal stabilisation call” value is reported as inactive: 0.
